Reference: patent publication US20090317396A1 (AJOU UNIVERSITY INDUSTRY ACADEMIC COOPERATION FOUNDATION, published 2009)
Results are given in words; binding and its absence hold for the method and conditions named. Some binding calls cover weakened binding; strength is not graded here.

Sequences of proteins named here, by UniProt entry; tags and fusion partners are left off. Residues count along the entry.
UniProt O14763, residues 52-182: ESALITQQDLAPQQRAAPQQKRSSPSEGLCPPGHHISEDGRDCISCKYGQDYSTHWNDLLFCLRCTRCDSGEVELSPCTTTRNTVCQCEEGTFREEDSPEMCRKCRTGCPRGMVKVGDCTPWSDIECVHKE

Tests used:
[1] = target: death receptor 5 (DR5) (UniProt O14763); test: competitive ELISA on coated DR5, with or without 20 µg/ml TRAIL as competitor
[2] = target: death receptor 5 (DR5) (UniProt O14763); test: ELISA on coated DR5, no TRAIL; detection with anti-Flag M2 or anti-E-tag, then AP anti-mouse IgG and p-NPP; A405 plotted as bound fraction
[3] = target: death receptor 5 (DR5) (UniProt O14763); test: ELISA, HW6 pre-bound to DR5-fixed plate, TRAIL titrated as competitor
[4] = target: death receptor 5 (DR5) (UniProt O14763); test: competitive ELISA: HW6 pre-bound to the DR5-coated plate (16 µg/µl as written in paragraph 107), then TRAIL titrated as competitor; bound scFv detected
[5] = target: death receptor 5 (DR5) (UniProt O14763); test: MACS and FACS of yeast-displayed scFv with 1 µM biotin-labelled DR5
[6] = target: death receptor 5 (DR5) (UniProt O14763); test: competitive ELISA on coated DR5 with 20 µg/ml TRAIL present; detection with anti-Flag M2 or anti-E-tag, then AP anti-mouse IgG and p-NPP; A405 plotted as bound fraction
[7] = target: death receptor 5 (DR5) (UniProt O14763); test: SPR (Biacore 2000), DR5 immobilised on CM5 chip
[8] = target: death receptor 5 (DR5) (UniProt O14763); test: SPR (Biacore 2000): DR5 immobilised on a CM5 chip, HW6 injected at 25 to 400 nM in PBS pH 7.4, 25 °C

Measured: binding

B1: HW6 anti-DR5 scFv antibody (scFv)
scFv: QVQLQQSGPGRVQPSQTLSLTCAISGDSVSNNNAAWYWIRQSPSRGLEWLGRTYYRSKWYNDYAVSVKSRITISPDTSKNQFSLQLNSVTPEDTAVYYCARRGDGNSYFDYWGQGTLVTVSSGILRWGRFGWRGLGRGWLEIVLTQSPGTLSLSPGERATLSCRASQSVSSGYVSWYRQKPGQAPRLLIYGASTRATGIPDRFSGSGSGTDFTLTISRLEPEDFAVYYCHQYGSSPNTYGQGTKVGIK
notes: Human scFv expressed in E. coli periplasm, purified, monomeric; not shown: C-terminal Flag tag from vector pKJ1; C-terminal 6xHis tag from vector pKJ1
binds: all assays above
